Experiment [1] deals with talin VBS1 (H1-H4) residues 482-636. In words: native gel or EMSA. Background: In EMSA bound probe runs differently from free probe, usually more slowly.
The target is the same in experiment [2]. In words: ITC. In general terms: ITC needs no label: the signal is the heat of the interaction.

No constants are given. Whether binding was seen depends on the method and setting. Binding can be weak; no strength is given.

Regarding TRETIFEASKKVTNSLSNLISLIGT [IpaA VTBS peptide (488-512)], the binding entry in experiment [1] is listed as “binds”.

In the case of TRETIFEASKAVTNSLSNLISLIGT [IpaA VTBS K498A peptide], the binding entry in experiment [2] was “binds”. On to AIYEKAKEVSSALSKVLSKIDD (peptide, UniProt P18010 565-586) [IpaA VBS2 peptide (565-586)], for which the binding result in experiment [2] is “no binding”.

For the origin of these results see doi:10.1101/329136.
